# PubChem BioAssay AID1259254 – NCATS – 2017
# Screen: 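Gene knock-downs that lead to re-replication, shown by excess G2 DNA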 (primary screen)
# Cells: human HCT116 colorectal cancer cells
# Knock-down reagent: single siRNA against human genes
# Timing: 3 days
# Measured: 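Imaged Hoechst DNA stain sorts each cell into a cycle phase by DNA amount; per plate, G2 fraction set to 0% for non-targeting and 100% for GMNN siRNA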
# Reading the numbers: G2 robust z-score and G2 cells, % of GMNN control: higher = more G2 cells, more excess DNA replication
# Active means: 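Active siRNAs have a G2 robust z of 5 or more median absolute deviations over the median, which in these data means about 38% or higher of GMNN control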
# In all, the deposit lists about 59,000 reagents; below is a random part of them. About 1,550 of them (2.6%) count as active. 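G2 share is only a proxy for re-replication; each gene was hit by three separate siRNAs, and active genes were retested.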 The numbers tell different reagents against one gene apart. Not all columns of the deposit are shown. Not given: the amount of reagent.
target,reagent,G2 robust z-score,"G2 cells, % of GMNN control",activity call
"TNNI3 (troponin I3, cardiac type)",1,-1,-4.09,inactive
"TNNI3 (troponin I3, cardiac type)",2,7.21,53.7,active
"TNNI3 (troponin I3, cardiac type)",3,-0.506,-0.594,inactive
PHLDB3 (pleckstrin homology like domain family B member 3),1,0.915,9.41,inactive
PHLDB3 (pleckstrin homology like domain family B member 3),2,0.893,9.25,inactive
PHLDB3 (pleckstrin homology like domain family B member 3),3,0.177,4.21,inactive
PHLDB3 (pleckstrin homology like domain family B member 3),4,1.68,14.8,inactive
PHLDB3 (pleckstrin homology like domain family B member 3),5,1.42,12.9,inactive
PHLDB3 (pleckstrin homology like domain family B member 3),6,1.47,13.3,inactive
"LGSN (lengsin, lens protein with glutamine synthetase domain)",1,-1.35,-6.52,inactive
"LGSN (lengsin, lens protein with glutamine synthetase domain)",2,-0.333,0.626,inactive
"LGSN (lengsin, lens protein with glutamine synthetase domain)",3,-1.1,-4.8,inactive
EPB41L4A (erythrocyte membrane protein band 4.1 like 4A),1,-0.92,-3.51,inactive
EPB41L4A (erythrocyte membrane protein band 4.1 like 4A),2,0.0863,3.57,inactive
EPB41L4A (erythrocyte membrane protein band 4.1 like 4A),3,-0.52,-0.688,inactive
LRRC3 (leucine rich repeat containing 3),1,-1.1,-4.74,inactive
LRRC3 (leucine rich repeat containing 3),2,-1.23,-5.68,inactive
LRRC3 (leucine rich repeat containing 3),3,7,52.2,active
ERMAP,1,-0.0511,2.61,inactive
ERMAP,2,3.13,25,inactive
ERMAP,3,-0.238,1.3,inactive
CST9L (cystatin 9 like),1,-0.41,0.0839,inactive
CST9L (cystatin 9 like),2,-0.087,2.35,inactive
CST9L (cystatin 9 like),3,0.218,4.5,inactive
CHSY1 (chondroitin sulfate synthase 1),1,-1.71,-9.08,inactive
CHSY1 (chondroitin sulfate synthase 1),2,1.82,15.8,inactive
CHSY1 (chondroitin sulfate synthase 1),3,0.333,5.31,inactive
TDRD9 (tudor domain containing 9),1,-0.61,-1.33,inactive
TDRD9 (tudor domain containing 9),2,-0.887,-3.27,inactive
TDRD9 (tudor domain containing 9),3,-0.598,-1.24,inactive
LEMD1 (LEM domain containing 1),1,7.86,58.3,active
LEMD1 (LEM domain containing 1),2,1.55,13.9,inactive
LEMD1 (LEM domain containing 1),3,0.141,3.96,inactive
MMP9 (matrix metallopeptidase 9),1,1.99,17,inactive
MMP9 (matrix metallopeptidase 9),2,0.0386,3.24,inactive
MMP9 (matrix metallopeptidase 9),3,-0.926,-3.55,inactive
FBXO41 (F-box protein 41),1,-0.459,-0.26,inactive
FBXO41 (F-box protein 41),2,0.228,4.57,inactive
FBXO41 (F-box protein 41),3,-0.945,-3.68,inactive
CCDC184 (coiled-coil domain containing 184),1,-0.188,1.64,inactive
CCDC184 (coiled-coil domain containing 184),2,-0.285,0.959,inactive
CCDC184 (coiled-coil domain containing 184),3,0.696,7.87,inactive
BCL7A (BAF chromatin remodeling complex subunit BCL7A),1,0.333,5.31,inactive
BCL7A (BAF chromatin remodeling complex subunit BCL7A),2,-0.111,2.19,inactive
BCL7A (BAF chromatin remodeling complex subunit BCL7A),3,-0.0472,2.64,inactive
RPS6 (ribosomal protein S6),1,6.63,49.6,active
RPS6 (ribosomal protein S6),2,0.525,6.66,inactive
RPS6 (ribosomal protein S6),3,4.33,33.4,inactive

Targets listed so far whose target name begins with P or p (6):
target,reagent,G2 robust z-score,"G2 cells, % of GMNN control",activity call
PHLDB3 (pleckstrin homology like domain family B member 3),1,0.915,9.41,inactive
PHLDB3 (pleckstrin homology like domain family B member 3),2,0.893,9.25,inactive
PHLDB3 (pleckstrin homology like domain family B member 3),3,0.177,4.21,inactive
PHLDB3 (pleckstrin homology like domain family B member 3),4,1.68,14.8,inactive
PHLDB3 (pleckstrin homology like domain family B member 3),5,1.42,12.9,inactive
PHLDB3 (pleckstrin homology like domain family B member 3),6,1.47,13.3,inactive
